# Experimental data reported in ChEMBL document CHEMBL4028845, “Design, Synthesis, and Properties of a Potent Inhibitor of Pseudomonas aeruginosa Deacetylase LpxC” (J Med Chem, 2017).
# Columns and labels:
# [1] = tested on: Escherichia coli; assay: Antibacterial activity against Escherichia coli NB27047 after 18 to 24 hrs; assay type: functional
# How it was run: (§1)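 Broth MIC per CLSI guidelines in cation-adjusted Mueller Hinton broth. Compounds were dissolved and serially diluted in DMSO (carbapenems in water) before addition to plates. Incubation was at 37 °C for 18−24 h. MIC is the lowest concentration preventing visible growth. MIC50/MIC90 are the concentrations inhibiting 50% or 90% of isolates tested.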
# [2] = tested on: Klebsiella pneumoniae; assay: Antibacterial activity against Klebsiella pneumoniae NB29018 after 18 to 24 hrs; assay type: functional; how it was run: as §1
structure (smiles),measurement,setting,value
O=C(O)c1cn(C2CC2)c2cc(N3CCNCC3)c(F)cc2c1=O [CIPROFLOXACIN],MIC,[1],≤ 0.03 µg/mL
same,MIC,[2],≤ 0.03 µg/mL
